From the supplement of paper PMC10849652
The other results are listed elsewhere or left out.

Amino acid sequences for entries named in this document (tags omitted). A change or cut given only in a name is not applied to a line headed by its entry.
UniProt Q9ULP9: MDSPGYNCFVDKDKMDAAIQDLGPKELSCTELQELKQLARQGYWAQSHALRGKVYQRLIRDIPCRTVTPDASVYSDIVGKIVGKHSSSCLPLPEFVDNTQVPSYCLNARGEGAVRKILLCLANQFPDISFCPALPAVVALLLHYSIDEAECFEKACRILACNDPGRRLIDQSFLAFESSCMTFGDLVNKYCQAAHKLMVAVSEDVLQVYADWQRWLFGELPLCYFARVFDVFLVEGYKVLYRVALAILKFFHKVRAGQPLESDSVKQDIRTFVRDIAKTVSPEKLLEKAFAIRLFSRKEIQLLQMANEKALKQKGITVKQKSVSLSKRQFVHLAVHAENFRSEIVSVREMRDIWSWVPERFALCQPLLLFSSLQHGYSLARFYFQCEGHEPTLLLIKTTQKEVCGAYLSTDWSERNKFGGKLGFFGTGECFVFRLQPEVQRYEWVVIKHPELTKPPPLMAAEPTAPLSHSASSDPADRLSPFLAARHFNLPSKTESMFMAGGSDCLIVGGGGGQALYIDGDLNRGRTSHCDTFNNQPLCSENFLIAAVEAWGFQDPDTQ
UniProt Q9NU19: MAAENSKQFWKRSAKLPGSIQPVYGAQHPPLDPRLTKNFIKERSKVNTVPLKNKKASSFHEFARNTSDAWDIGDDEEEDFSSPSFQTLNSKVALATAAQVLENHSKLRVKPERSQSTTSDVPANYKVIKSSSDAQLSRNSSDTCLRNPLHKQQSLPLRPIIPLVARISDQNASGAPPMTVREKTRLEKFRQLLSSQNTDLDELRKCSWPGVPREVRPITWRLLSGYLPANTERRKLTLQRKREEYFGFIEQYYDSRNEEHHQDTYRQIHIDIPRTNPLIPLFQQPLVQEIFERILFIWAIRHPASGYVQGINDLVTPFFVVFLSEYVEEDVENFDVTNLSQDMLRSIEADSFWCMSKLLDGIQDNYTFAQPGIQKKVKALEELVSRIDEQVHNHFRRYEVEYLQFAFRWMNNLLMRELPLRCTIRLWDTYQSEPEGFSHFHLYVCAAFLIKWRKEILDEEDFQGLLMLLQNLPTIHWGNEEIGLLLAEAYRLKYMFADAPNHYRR
UniProt O14776: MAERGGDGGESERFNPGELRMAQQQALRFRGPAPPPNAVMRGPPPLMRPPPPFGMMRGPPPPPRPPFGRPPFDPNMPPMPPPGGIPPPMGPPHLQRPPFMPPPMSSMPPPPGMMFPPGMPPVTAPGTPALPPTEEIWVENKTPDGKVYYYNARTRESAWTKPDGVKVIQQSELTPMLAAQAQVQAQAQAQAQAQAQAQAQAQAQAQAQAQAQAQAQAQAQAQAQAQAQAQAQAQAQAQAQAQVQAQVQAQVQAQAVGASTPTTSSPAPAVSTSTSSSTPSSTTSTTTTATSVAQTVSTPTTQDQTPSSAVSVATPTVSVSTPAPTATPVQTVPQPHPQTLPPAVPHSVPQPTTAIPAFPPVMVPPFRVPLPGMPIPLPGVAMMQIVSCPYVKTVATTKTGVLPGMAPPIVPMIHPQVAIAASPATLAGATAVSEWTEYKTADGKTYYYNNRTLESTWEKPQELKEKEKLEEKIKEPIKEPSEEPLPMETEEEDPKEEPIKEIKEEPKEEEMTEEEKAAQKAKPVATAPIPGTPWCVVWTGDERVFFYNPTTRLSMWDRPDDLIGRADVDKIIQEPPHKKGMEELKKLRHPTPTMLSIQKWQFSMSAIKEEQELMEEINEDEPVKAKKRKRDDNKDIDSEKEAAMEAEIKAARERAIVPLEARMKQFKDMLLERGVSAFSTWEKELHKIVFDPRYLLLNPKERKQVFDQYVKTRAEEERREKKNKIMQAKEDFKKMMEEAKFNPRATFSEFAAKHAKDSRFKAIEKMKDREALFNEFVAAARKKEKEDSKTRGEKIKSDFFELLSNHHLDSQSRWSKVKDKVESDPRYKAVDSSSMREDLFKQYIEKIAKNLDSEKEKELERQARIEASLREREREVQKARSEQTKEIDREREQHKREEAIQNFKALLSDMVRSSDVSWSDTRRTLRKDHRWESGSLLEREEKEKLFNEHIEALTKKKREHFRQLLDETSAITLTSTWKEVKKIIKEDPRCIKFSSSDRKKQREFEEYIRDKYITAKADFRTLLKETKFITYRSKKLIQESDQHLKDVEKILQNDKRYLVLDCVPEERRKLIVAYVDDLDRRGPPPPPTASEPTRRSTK
UniProt Q9UL54: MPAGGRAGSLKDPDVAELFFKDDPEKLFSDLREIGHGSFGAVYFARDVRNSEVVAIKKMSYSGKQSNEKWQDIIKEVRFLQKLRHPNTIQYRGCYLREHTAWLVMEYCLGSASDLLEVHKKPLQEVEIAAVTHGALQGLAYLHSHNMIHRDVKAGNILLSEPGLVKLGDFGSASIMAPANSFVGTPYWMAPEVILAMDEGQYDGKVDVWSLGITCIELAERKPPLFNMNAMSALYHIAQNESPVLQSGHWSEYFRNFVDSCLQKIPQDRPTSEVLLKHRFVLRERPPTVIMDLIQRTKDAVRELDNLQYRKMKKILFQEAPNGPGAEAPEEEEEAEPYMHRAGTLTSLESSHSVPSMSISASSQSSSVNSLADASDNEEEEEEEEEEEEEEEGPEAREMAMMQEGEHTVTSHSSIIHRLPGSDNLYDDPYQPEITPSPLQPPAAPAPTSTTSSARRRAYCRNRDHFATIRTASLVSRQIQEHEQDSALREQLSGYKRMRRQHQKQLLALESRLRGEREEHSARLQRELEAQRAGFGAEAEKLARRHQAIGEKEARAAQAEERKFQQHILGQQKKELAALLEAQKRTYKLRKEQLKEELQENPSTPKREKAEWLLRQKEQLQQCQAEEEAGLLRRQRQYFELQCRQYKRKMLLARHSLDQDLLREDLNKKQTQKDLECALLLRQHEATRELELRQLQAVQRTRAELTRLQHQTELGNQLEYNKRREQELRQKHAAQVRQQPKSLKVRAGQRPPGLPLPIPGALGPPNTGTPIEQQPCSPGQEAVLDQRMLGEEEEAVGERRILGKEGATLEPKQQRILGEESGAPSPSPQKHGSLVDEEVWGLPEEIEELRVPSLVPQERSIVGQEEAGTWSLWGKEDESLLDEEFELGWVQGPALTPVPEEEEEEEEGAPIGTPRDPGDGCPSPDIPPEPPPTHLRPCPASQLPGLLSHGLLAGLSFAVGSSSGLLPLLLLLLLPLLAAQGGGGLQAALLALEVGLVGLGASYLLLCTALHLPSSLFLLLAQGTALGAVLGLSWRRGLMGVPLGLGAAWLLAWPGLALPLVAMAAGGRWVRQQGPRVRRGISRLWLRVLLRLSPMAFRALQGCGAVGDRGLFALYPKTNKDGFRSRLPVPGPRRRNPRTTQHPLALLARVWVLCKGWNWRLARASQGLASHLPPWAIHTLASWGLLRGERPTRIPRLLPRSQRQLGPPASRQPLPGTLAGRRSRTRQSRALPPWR
UniProt Q15813: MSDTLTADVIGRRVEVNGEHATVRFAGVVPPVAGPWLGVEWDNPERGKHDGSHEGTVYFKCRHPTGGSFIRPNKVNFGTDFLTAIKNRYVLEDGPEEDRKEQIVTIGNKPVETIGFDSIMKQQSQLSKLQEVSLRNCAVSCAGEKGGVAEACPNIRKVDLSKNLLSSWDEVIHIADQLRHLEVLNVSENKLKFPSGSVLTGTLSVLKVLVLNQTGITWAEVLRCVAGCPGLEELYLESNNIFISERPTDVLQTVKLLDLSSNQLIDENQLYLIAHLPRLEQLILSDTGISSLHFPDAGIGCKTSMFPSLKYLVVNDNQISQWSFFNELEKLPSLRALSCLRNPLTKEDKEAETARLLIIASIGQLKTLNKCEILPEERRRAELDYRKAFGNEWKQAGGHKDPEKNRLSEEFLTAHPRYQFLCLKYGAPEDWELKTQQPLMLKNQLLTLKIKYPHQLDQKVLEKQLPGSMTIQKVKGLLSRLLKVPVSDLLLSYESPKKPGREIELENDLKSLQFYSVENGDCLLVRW
UniProt Q13148, whole entry, looked up: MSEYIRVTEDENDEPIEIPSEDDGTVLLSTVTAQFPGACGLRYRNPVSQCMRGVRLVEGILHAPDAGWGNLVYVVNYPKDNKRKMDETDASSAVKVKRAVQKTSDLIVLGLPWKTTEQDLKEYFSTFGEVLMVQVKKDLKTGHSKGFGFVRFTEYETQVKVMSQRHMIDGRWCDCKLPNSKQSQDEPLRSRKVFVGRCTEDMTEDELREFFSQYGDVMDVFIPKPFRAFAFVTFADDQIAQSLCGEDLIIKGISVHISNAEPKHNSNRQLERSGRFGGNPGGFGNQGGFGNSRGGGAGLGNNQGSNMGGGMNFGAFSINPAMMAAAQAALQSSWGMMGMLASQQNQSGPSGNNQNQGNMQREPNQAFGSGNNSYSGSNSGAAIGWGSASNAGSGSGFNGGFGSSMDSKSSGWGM
UniProt Q13488, whole entry, looked up: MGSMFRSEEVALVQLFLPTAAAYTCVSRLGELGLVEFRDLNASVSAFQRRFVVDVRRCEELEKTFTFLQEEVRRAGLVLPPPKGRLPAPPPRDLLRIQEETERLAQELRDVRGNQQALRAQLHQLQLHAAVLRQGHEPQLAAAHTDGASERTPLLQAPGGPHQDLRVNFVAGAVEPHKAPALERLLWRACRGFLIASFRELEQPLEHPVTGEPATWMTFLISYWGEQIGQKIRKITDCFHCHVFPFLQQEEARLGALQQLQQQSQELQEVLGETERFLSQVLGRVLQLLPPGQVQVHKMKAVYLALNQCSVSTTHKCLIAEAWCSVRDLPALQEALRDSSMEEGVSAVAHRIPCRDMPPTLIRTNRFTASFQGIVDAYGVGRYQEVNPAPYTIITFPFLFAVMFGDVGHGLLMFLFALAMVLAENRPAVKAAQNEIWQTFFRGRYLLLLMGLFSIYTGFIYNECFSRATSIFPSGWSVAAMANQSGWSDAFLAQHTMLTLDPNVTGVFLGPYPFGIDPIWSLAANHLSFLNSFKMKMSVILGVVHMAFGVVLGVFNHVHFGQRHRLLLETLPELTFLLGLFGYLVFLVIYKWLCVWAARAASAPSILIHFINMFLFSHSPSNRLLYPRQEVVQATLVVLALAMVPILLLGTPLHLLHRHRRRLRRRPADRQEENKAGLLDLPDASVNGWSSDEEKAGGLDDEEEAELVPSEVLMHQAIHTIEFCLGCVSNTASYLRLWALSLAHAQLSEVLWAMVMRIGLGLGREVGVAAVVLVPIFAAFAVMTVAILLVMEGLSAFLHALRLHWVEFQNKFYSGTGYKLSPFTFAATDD
UniProt O60343: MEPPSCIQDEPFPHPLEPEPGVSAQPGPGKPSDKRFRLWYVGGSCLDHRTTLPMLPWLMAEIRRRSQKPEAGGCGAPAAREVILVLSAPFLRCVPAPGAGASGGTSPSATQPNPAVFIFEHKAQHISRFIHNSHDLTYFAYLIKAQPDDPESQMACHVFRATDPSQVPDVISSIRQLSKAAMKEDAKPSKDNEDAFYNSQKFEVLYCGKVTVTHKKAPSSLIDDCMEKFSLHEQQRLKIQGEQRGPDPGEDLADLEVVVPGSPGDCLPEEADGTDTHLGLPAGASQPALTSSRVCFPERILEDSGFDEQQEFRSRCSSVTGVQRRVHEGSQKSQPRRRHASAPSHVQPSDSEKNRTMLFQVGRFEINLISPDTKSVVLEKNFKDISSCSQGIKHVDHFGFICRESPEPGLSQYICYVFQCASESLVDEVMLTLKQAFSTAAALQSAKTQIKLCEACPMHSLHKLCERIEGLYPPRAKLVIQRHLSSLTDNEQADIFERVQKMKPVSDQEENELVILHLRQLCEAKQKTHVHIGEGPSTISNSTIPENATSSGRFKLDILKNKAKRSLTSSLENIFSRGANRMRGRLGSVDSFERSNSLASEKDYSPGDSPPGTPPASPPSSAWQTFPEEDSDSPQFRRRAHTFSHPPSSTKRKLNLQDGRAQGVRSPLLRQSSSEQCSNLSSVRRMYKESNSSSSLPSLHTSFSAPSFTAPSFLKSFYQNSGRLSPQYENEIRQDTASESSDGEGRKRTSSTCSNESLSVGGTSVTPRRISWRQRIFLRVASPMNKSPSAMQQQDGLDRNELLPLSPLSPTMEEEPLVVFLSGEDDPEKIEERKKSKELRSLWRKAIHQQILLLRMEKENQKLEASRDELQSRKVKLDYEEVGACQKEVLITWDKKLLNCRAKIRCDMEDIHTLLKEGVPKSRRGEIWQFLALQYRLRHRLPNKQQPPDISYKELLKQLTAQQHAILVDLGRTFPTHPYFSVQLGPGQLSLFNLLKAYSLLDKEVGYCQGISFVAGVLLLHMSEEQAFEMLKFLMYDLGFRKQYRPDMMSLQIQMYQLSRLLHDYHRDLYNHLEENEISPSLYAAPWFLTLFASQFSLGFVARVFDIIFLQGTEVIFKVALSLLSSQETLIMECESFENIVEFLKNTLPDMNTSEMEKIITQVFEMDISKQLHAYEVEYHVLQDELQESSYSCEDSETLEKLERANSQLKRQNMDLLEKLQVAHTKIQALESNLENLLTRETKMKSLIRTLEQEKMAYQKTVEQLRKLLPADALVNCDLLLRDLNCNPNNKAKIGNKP

Assays:
Assay in all cases: log2 fold change, soluble protein after heating vs DMSO (PISA); higher = thermal stabilisation; K562 lysate, 10 uM; active = over 0.2 and 3.5 SD of the protein, either way, in both replicates (recomputed)
[1] = compound: C1=CC=C(C=C1)[C@H](COC2=CC3=C(C=C2)NC(=O)N3)NC(=O)C4=CC=CN(C4=O)CC5=CC(=C(C=C5)F)F
Outline: (§1)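 Dounce homogenisation of K562 pellets in PBS pH 7.4 with 1 mM MgCl2 produced a crude extract, used at 1 mg/mL protein. Exposure to 10 μM compound lasted 30 min, and aliquots were then heated for 3 min across 48°C-58°C, pooled and brought to 0.5% NP-40 at 4°C. The supernatant after 21,000xg for 90 min was quantified by TMTpro 16plex LC-MS/MS with channel sums equalised. Duplicate values are given as log-two fold change in thermal stability relative to solvent controls.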

[2] = compound: CC1=C(SC2=C1C(=N[C@H](C3=NN=C(N32)C)CC(=O)N)C4=CC=C(C=C4)Cl)C
Outline: as §1

[3] = compound: CC1=C2C(=CC=C1)N=C(N(C2=O)C3=CC=CC=C3C)CN4C=NC5=C(N=CN=C54)N
Outline: as §1

[4] = compound: Cc1sc2c(c1C)C(c1ccc(Cl)cc1)=N[C@@H](CC(=O)OC(C)(C)C)c1nnc(C)n1-2
Outline: as §1

[5] = compound: c1ccc([C@@H]2C[C@H]2NC2CCNCC2)cc1
Outline: as §1

Measured: log2 fold change

TBC1D24 (UniProt Q9ULP9)
inactive: [1] 0.025 | [2] 0.046 | [3] 0.023 | [4] 0.01 | [5] 0.033

TBC1D22B (UniProt Q9NU19)
inactive: [1] 0.027 | [2] 0.017 | [3] 0.035 | [4] 0.013 | [5] 0.03

TCERG1 (UniProt O14776)
inactive: [1] -0.043 | [2] 0.039 | [3] 0.005 | [4] 0.033 | [5] 0.019

TAOK2 (UniProt Q9UL54)
inactive: [1] -0.033 | [2] 0.118 | [3] -0.001 | [4] 0.242 | [5] -0.105

TDP2 isoform 2 (UniProt O95551)
inactive: [1] 0.022 | [2] 0.042 | [3] -0.006 | [4] 0.008 | [5] 0.028

TBCE (UniProt Q15813)
inactive: [1] 0.008 | [2] -0.027 | [3] 0.014 | [4] 0.008 | [5] 0.015

2 consecutive entries already listed:
TBC1D24 (UniProt Q9ULP9)
inactive: [1] 0.025 | [2] 0.046 | [3] 0.023 | [4] 0.01 | [5] 0.033

TBC1D22B (UniProt Q9NU19)
inactive: [1] 0.027 | [2] 0.017 | [3] 0.035 | [4] 0.013 | [5] 0.03

Next entries.

TARDBP (UniProt Q13148)
inactive: [1] -0.094 | [2] -0.012 | [3] 0.067 | [4] -0.145 | [5] -0.041

TCIRG1 (UniProt Q13488)
inactive: [1] 0.066 | [2] -0.022 | [3] -0.1 | [4] 0.065 | [5] 0.004

TBC1D4 (UniProt O60343)
inactive: [1] -0.025 | [2] 0.01 | [3] 0.018 | [4] -0.022 | [5] -0.027
